{"sequences": {"note": "Protein sequences, listed by entry. Tags and fused reporters are not part of them. Residues count along the entry.", "UniProt P12978, residues 300-432": "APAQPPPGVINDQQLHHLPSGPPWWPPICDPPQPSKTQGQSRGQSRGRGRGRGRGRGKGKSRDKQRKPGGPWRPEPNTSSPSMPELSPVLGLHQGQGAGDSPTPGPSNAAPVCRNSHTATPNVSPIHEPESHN", "UniProt P06748": "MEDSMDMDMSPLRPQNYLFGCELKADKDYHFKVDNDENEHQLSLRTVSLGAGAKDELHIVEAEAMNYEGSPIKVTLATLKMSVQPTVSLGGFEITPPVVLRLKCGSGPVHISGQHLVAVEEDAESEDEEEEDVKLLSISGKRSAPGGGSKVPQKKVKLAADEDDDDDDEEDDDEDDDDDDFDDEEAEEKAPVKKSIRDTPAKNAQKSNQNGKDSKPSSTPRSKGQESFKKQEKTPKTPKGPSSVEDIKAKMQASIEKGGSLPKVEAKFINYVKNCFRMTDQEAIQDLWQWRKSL"}, "source": "paper PMC3521654", "about": "“The Nuclear Chaperone Nucleophosmin Escorts an Epstein-Barr Virus Nuclear Antigen to Establish Transcriptional Cascades for Latent Infection in Human B Cells” (PLoS Pathogens, 2012)", "target": "GST-E2 300–432 (Epstein-Barr virus) (UniProt P12978)", "assay": "affinity purification with mass spectrometry; only the target purified", "note": "Results are given in words; binding and its absence hold for the method and conditions named. Binding seen in cells or lysates may run through a third protein. These calls come from enrichment with a bait or labelling near it, and not all partners need be listed."}
{"substance": "nucleophosmin (NPM1), endogenous (from UniProt P06748 1-294)", "values": [{"measurement": "binding", "value": "binds"}]}
